The text below walks through data of PMC5996148.

The list shows a part of the results.

Assay in all cases: protein microarray (ProtoArray v5.0), streptavidin-Alexa Fluor 647
Common to all, as to settings: 3'-biotin; 20 mM Tris (pH 7.5), 5 mM MgCl2, 100 mM KCl, 0.1% Tween-20, A/T-rich and random oligonucleotide blockers; temperature not stated; high values mean tight binding

The subject of assay [1] is cDNA clone MGC:110973 IMAGE:6156156 (human).
Assay [2] has as its system cDNA clone MGC:12418 IMAGE:3934658, complete cds (human).
The test system of assay [3] is cDNA clone MGC:15478 IMAGE:2967661, complete cds (human).
Assay [4] concerns cDNA clone MGC:16743 IMAGE:4130428 (human).
Assay [5] concerns cDNA clone MGC:17055 IMAGE:4338834 (human).
Assay [6] has as its system cDNA clone MGC:23693 IMAGE:4767650 (human).
The test system of assay [7] is cDNA clone MGC:25008 IMAGE:4453355, complete cds (human).
The test system of assay [8] is cDNA clone MGC:31936 IMAGE:4765518, complete cds (human).
The test system of assay [9] is cDNA clone MGC:32654 IMAGE:4701898, complete cds (human).
Assay [10] concerns cDNA clone MGC:34832 IMAGE:5203730 (human).

Regarding “GGGGACAGGGGTATGGGGAGGGG [G4-3 biotinylated (CtG)]”, the binding signal in [1] is -0.32 z-score; in [2], -0.327 z-score; in assay [3], -0.334 z-score; in [4] it was -0.337 z-score; in assay [5], -0.332 z-score; in [6], -0.324 z-score. For the same sequence, the binding signal in assay [7] is -0.337 z-score; in assay [8], -0.332 z-score; in assay [9] it was -0.336 z-score; in assay [10], -0.32 z-score.
